Test results: PubChem BioAssay AID2685 (National Center for Advancing Translational Sciences (NCATS), 2010)
This is one part of the list. Shown are side measurements of this screen, not its main read-out; they come without a call. Compounds called inactive in the main read-out are mostly missing here. Words in brackets tell the shape of the fitted curve; partial curves, single points and poor fits give uncertain potencies.

Test: qHTS Assay for Lipid Storage Modulators in Drosophila S3 Cells;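 as to cell number change: cells counted by Cell Tracker Red CMTPX staining in the red channel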
Conditions: BODIPY lipid droplet fluorescence, 18-24 h; for cell number change: measured here: cell count max response, cells fed with added oleic acid
Procedure, shortened: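 Drosophila S3 cells got compounds at several concentrations plus oleic acid (400 uM solution). Laser-scanning cytometry with 488 nm excitation read lipid droplets at 500-530 nm and cells at 575-640 nm. Percent activity was relative to 20 uM Triacsin C.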

[1] = measured here: cell number channel AC50, cells fed with added oleic acid
[2] = measured here: lipid fluorescence (Fed channel) AC50, cells fed with added oleic acid

## CC1(c2ccc(Cl)cc2)NC(=O)N(CC(=O)NC(=O)NCc2ccco2)C1=O (stereo unspecified)
  cell number change: -94.3%
[1]
  AC50: 0.058 µM [falling, full curve, poor fit]
[2]
  AC50: 0.651 µM [falling, single point]

## COc1ccc(NC(=O)CSc2nnc(-c3cccs3)n2-c2ccccc2)cc1
  cell number change: -46.1%
[1]
  AC50: 13 µM [falling, partial curve]
[2]
  AC50: 20.6 µM [falling, single point]

## Cc1ncoc1C(=O)N1CCCC(C(=O)c2cccc(C(F)(F)F)c2)C1 (stereo unspecified)
  cell number change: -11.8%
[2]
  AC50: 32.6 µM [falling, single point]

## CN(C)CCCNC(=S)Nc1ccc(-c2ccccc2)cc1
  cell number change: -34%
[1]
  AC50: 3.66 µM [falling, full curve]
[2]
  AC50: 2.31 µM [falling, partial curve, poor fit]

## COc1ccc(-c2csc(N)n2)cc1
  cell number change: -0.169%
[2]
  AC50: 29.1 µM [rising, single point]

## CN1CCN(C(=S)c2ccc(-c3cccc(Cl)c3Cl)o2)CC1
  cell number change: -38.9%
[1]
  AC50: 14.6 µM [falling, single point]
[2]
  AC50: 14.6 µM [falling, single point]

## Cc1[nH]c(=O)[nH]c(=O)c1/C=N/NC(=O)[C@@H](NC(=O)OC(C)(C)C)C(C)C
  cell number change: 7.19%
[2]
  AC50: 23.1 µM [rising, single point]

## c1ccc(-c2noc(-c3cccc4ccccc34)n2)cc1
[2]
  AC50: 2.91 µM [rising, single point]

## C/C(=N\NC(=O)COc1ccc(C#N)cc1)c1ccc(N2CCOCC2)cc1
  cell number change: -50%
[1]
  AC50: 23.1 µM [falling, partial curve, poor fit]

## COc1cc2c(cc1OC)C1O[C@](c3ccsc3)(C2)Oc2c1c(=O)oc1ccc(F)cc21
  cell number change: 4.07%

## CC(=O)c1c(C)[nH]c(C(=O)NCCN2CCC(C)CC2)c1C
  cell number change: 8.97%
[2]
  AC50: 18.4 µM [rising, single point]

## CCOc1ccccc1NC(=O)C1=C(C)NC(=S)NC1c1cccs1 (stereo unspecified)
  cell number change: 0.437%
[2]
  AC50: 3.66 µM [rising, single point]

## CCOc1ccc(C(=O)Nc2ccc3[nH]ncc3c2)cc1
  cell number change: 7.02%

## O=C(COC(=O)c1ccc(Br)o1)Nc1nc2c(F)c(F)c(F)cc2s1
[2]
  AC50: 3.26 µM [rising, partial curve]

## Cc1ccccc1NC(=O)Cc1nc(COC(=O)CNS(=O)(=O)c2cccc(Br)c2)cs1
  cell number change: -27.3%
[2]
  AC50: 29.1 µM [falling, single point]

## O=C(CN1CCCC1=O)NC1CCCc2c1cnn2-c1cc(F)cc(F)c1 (stereo unspecified)
  cell number change: -6.9%
[1]
  AC50: 2.91 µM [falling, single point]
[2]
  AC50: 3.26 µM [falling, single point]

## COc1cc(/C=C(\C#N)c2nc3ccccc3[nH]2)cc(OC)c1O
  cell number change: -46.4%
[1]
  AC50: 25.9 µM [falling, single point]
[2]
  AC50: 8.2 µM [falling, partial curve, poor fit]

## Cc1cc(NC(=O)CSc2ccccn2)no1
  cell number change: -81.6%
[1]
  AC50: 8.2 µM [falling, partial curve]

## O=C(CN1C(=O)NC(c2ccccc2)(c2ccccc2)C1=O)NCCNCCO
  cell number change: 15.8%
[2]
  AC50: 29.1 µM [falling, single point]

## CCC(C)c1ccc(NC(=O)c2cccnc2)cc1 (stereo unspecified)
[1]
  AC50: 6.51 µM [rising, single point]

## Cc1ccc(CNC(=S)N(C)C)cc1
  cell number change: -5.03%
[1]
  AC50: 0.00461 µM [rising, full curve, poor fit]

## COc1ccc(CCN2CC(C(=O)N(C)CCn3nc(C)cc3C)CCC2=O)cc1 (stereo unspecified)
  cell number change: 1.42%
[2]
  AC50: 29.1 µM [falling, single point]

## CC(C)CC1NC(=O)N(CC(=O)Nc2ccc3c(c2)CCC3)C1=O (stereo unspecified)
[2]
  AC50: 0.517 µM [rising, partial curve, poor fit]

## Cc1ccc(C(=O)CSc2nnc3n2CCCCC3)s1
  cell number change: -3.71%
[2]
  AC50: 0.461 µM [falling, partial curve, poor fit]

## CC(C)C(C(=O)NCC1CCCO1)N(Cc1ccco1)C(=O)CNS(=O)(=O)c1ccc(F)cc1 (stereo unspecified)
  cell number change: -22.4%
[2]
  AC50: 3.26 µM [rising, partial curve, poor fit]

## Cc1cc(N2C(=O)C(O)=C(C(=O)c3ccco3)C2c2ccc(O)cc2)no1 (stereo unspecified)
  cell number change: -4.61%

## Cc1ccc(NC(=O)CCn2cccc2)cc1F
  cell number change: -17.5%

## CC1CC(C)CN(C(=O)CNC(=O)Cn2ccc3ccccc3c2=O)C1 (stereo unspecified)
  cell number change: -12.2%
[1]
  AC50: 0.82 µM [falling, single point]
[2]
  AC50: 0.82 µM [falling, partial curve, poor fit]

## CNC(=O)c1[nH]cnc1C(=O)NCC(=O)OC(C)(C)C
  cell number change: 3.59%
[2]
  AC50: 6.51 µM [rising, single point]

## COc1cccc(Nc2nc(-c3sc(N)nc3C)cs2)c1
[1]
  AC50: 2.91 µM [rising, partial curve]

## CC(C)C(=O)Nc1ccc(C(=O)NNC(=O)CCc2ccccc2)cc1
  cell number change: 6.35%
[2]
  AC50: 1.16 µM [falling, single point]

## COc1nc2ccccc2cc1-c1noc(-c2cccnc2)n1
  cell number change: -6.34%
[2]
  AC50: 13 µM [rising, single point]

## Cc1ccccc1NS(=O)(=O)c1cc(C(N)=O)ccc1C
  cell number change: 39.8%
[1]
  AC50: 1.03 µM [rising, partial curve, poor fit]
[2]
  AC50: 0.326 µM [rising, partial curve, poor fit]

## CC(=O)N1N=C(c2ccc(C)cc2)OC1c1ccc(C(C)C)cc1 (stereo unspecified)
  cell number change: -24.7%

## COc1cc(C(=O)O[C@H]2C/C(C)=C/CC[C@@]3(C)O[C@@H]3[C@H](O)[C@@H]2C(C)C)cc(OC)c1OC
  cell number change: -24.8%
[2]
  AC50: 18.4 µM [falling, single point]

## CCN(CC(=O)Nc1cc(Cl)ccc1C)C(=O)CSCc1ccccc1
  cell number change: -20.6%

## O=C(CCCl)Nc1nc2c(s1)CCc1ccccc1-2
  cell number change: -17.1%
[2]
  AC50: 3.26 µM [falling, partial curve, poor fit]

## COc1cc(/C=N/NC(=O)c2c(-c3c(Cl)cccc3Cl)noc2C)ccc1OCC(N)=O
  cell number change: -15.5%
[2]
  AC50: 0.58 µM [falling, single point]

## O=C(O)c1ccc(N2CCCCS2(=O)=O)cc1
  cell number change: 7.54%
[2]
  AC50: 25.9 µM [rising, single point]

## O=C(c1cccnc1)N1CCN(c2ccc3ccccc3n2)CC1
  cell number change: 32.2%
[1]
  AC50: 11.6 µM [rising, single point]

## CS(=O)(=O)c1cnc2c(-c3ccsc3)cnn2c1N
  cell number change: 16.6%
[2]
  AC50: 3.66 µM [rising, single point]

## O=C(c1ccccc1NS(=O)(=O)c1cccs1)N1CCCC1
  cell number change: -35.2%
[1]
  AC50: 0.00517 µM [falling, full curve, poor fit]
[2]
  AC50: 0.0164 µM [falling, full curve, poor fit]

## N#CC1(c2c(O)nc3n(c2=O)CCCS3)CCCCC1
  cell number change: -17.6%
[2]
  AC50: 0.0366 µM [falling, full curve, poor fit]

## CCCc1ccc(-c2cc(C(=O)N/N=C/c3ccc([N+](=O)[O-])o3)c3ccccc3n2)cc1
[1]
  AC50: 1.46 µM [rising, partial curve]
[2]
  AC50: 2.31 µM [rising, partial curve]

## CCCCN(C(=O)C1CC(=O)N(c2ccc(C)cc2)C1)c1c(N)n(CCC)c(=O)[nH]c1=O (stereo unspecified)
[2]
  AC50: 0.00461 µM [falling, full curve, poor fit]

## COc1ccc(OCC(NS(=O)(=O)c2ccc(-n3cnnn3)cc2)C(C)C)cc1 (stereo unspecified)
[2]
  AC50: 0.103 µM [falling, full curve, poor fit]

## O=C(NNC(=S)Nc1ccc(Br)cc1)c1cccnc1
  cell number change: 21.6%
[1]
  AC50: 4.11 µM [rising, full curve, poor fit]
[2]
  AC50: 6.51 µM [rising, partial curve]

## N#C/C(=C\c1ccc(OCc2ccc(Br)cc2)cc1)C(=O)Nc1cccc(C(=O)O)c1
  cell number change: 17.1%
[2]
  AC50: 29.1 µM [rising, partial curve]

## Cc1cc(O)c(-c2ccno2)cc1Cl
  cell number change: -26.6%
[2]
  AC50: 1.64 µM [falling, partial curve]

## O=c1ccc(OCCOc2ccccc2)nn1-c1ccccc1
  cell number change: -52.7%
[1]
  AC50: 29.1 µM [falling, single point]
[2]
  AC50: 29.1 µM [falling, single point]

## O=C(O)CN1CCOCCOCCN(CC(=O)O)CCOCCOCC1
  cell number change: -49.3%
[1]
  AC50: 5.8 µM [falling, full curve]
[2]
  AC50: 0.58 µM [falling, full curve, poor fit]

## Cc1ccn2c(=O)nc(SCC(=O)NCc3ccccc3)nc2c1
  cell number change: 36.9%
[1]
  AC50: 16.4 µM [rising, partial curve, poor fit]

## COC(=O)c1c(NC(=O)CSc2ncnc3[nH]ncc23)sc2c1CCC2
  cell number change: -45.8%
[1]
  AC50: 29.1 µM [falling, single point]
[2]
  AC50: 0.82 µM [falling, partial curve, poor fit]

## CCOC(=O)c1c(N)sc(C(O)(C(F)(F)F)C(F)(F)F)c1-c1ccc(Cl)cc1
  cell number change: 10.7%
[1]
  AC50: 2.31 µM [rising, partial curve]
[2]
  AC50: 2.59 µM [rising, partial curve]

## CCCOc1ccc(/C(O)=C2/C(=O)C(=O)N(CCCOC)C2c2ccncc2)cc1 (stereo unspecified)
  cell number change: -86.3%
[1]
  AC50: 23.1 µM [falling, partial curve, poor fit]
[2]
  AC50: 25.9 µM [falling, partial curve]

## COc1ccc(-c2nc3ccccc3n2OC(C)C(=O)O)cc1 (stereo unspecified)
  cell number change: -13.8%
[2]
  AC50: 29.1 µM [falling, single point]

## COc1ccc(NC(=O)c2ccc(-c3ccccc3)cc2)cc1NS(=O)(=O)c1ccc(F)cc1
  cell number change: 3.1%
[2]
  AC50: 0.651 µM [rising, full curve]
